PubChem BioAssay AID652272 | Drosophila RNAi Screening Center, 2013
Screen: 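Finding fly genes that regulate Hedgehog signal transduction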 (primary screen). Cells: Drosophila clone 8 (Cl8) cells. Knock-down reagent: long dsRNA against Drosophila genes. Measurement: 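Plate reader light from a firefly reporter under a ptc promoter fragment that responds to Hedgehog, with Renilla light as transfection reference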. Direction: firefly Hh reporter signal: higher = more ptc reporter light; Renilla reference signal: higher = more Renilla control light. Hit rule: 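Called a hit if the two-replicate mean z-score lies below -2 or above +3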. Meaning of the calls: active = hit: reporter lowered or raised; inactive = not a hit.
The deposit covers about 21,000 reagents; this is an unselected part of those that have a named target and a result. In the full data, 503 (2.4%) are marked active. 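Raw plate light values, not normalised; calls rest on replicate z-scores that were not deposited; hits include reporter decreases as well as increases.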 Unmarked entries are inactive. Names joined by + are all predicted targets of the reagent. Reagent sequences are not shown. The record does not give: the amount of reagent, the time to read-out.

target | amplicon | firefly Hh reporter signal, replicate 1 | firefly Hh reporter signal, replicate 2 | firefly Hh reporter signal, replicate 3 | Renilla reference signal, replicate 1 | Renilla reference signal, replicate 2
CG15024 | DRSC08478 | 78906 | 70353 | – | 7508 | 5812
CG9921 | DRSC20220 | 5.24e5 | 1.29e5 | – | 4040 | 4040
CG12316 | DRSC09879 | 92196 | 64956 | – | 3686 | 3034
l(2)gl (lethal (2) giant larvae) | DRSC00825 | 5.27e5 | 87696 | – | 3788 | 3788
CG12848 | DRSC04128 | 1.07e5 | 64965 | – | 2480 | 5650
Gos28 (Golgi SNARE, 28 kDa) | DRSC16292 | 8.65e5 | 2.19e5 | – | 45622 | 5858
CG3199 | DRSC15467 | 90363 | 1.05e5 | – | 2556 | 2390
CG13884 | DRSC08354 | 65177 | 44727 | – | 1947 | 3845
CG43057 | DRSC01015 | 5.00e5 | 2.48e5 | – | 27572 | 10552
CR40450 + CG32767 | DRSC18387 | 77366 | 61330 | – | 2132 | 2068
Ugt304A1 (UDP-glycosyltransferase family 304 member A1) | DRSC15127 | 79048 | 88400 | – | 2101 | 2464
ringer (ringmaker) | DRSC10455 | 83380 (active) | – | – | 3483 | 3329
CG8100 | DRSC10961 | 78009 | – | – | 5922 | 2372
HP1b (Heterochromatin Protein 1b) | DRSC18418 | 1.41e5 | 3.09e5 | – | 4977 | 11493
FANCI (Fanconi anemia complementation group I) | DRSC06416 | 90640 | 68688 | – | 2242 | 5561

Continued; the last 2 above are carried over.
target | amplicon | firefly Hh reporter signal, replicate 1 | firefly Hh reporter signal, replicate 2 | firefly Hh reporter signal, replicate 3 | Renilla reference signal, replicate 1 | Renilla reference signal, replicate 2
HP1b (Heterochromatin Protein 1b) | DRSC18418 | 1.41e5 | 3.09e5 | – | 4977 | 11493
FANCI (Fanconi anemia complementation group I) | DRSC06416 | 90640 | 68688 | – | 2242 | 5561
Dpm1 (Dolichyl-phosphate mannosyltransferase subunit 1) | DRSC02018 | 86212 | 43064 | – | 2205 | 4129
sev (sevenless) | DRSC20372 | 82423 | 1.63e5 | – | 2361 | 6514
CG34198 | DRSC05803 | 1.17e5 | 2.36e5 | – | 3353 | 9277
CG14194 | DRSC19549 | 80812 | 2.14e5 | – | 3101 | 9200
Nna1 (Nna1 carboxypeptidase) | DRSC18993 | 8.20e5 | 8.24e5 | 3.12e5 | 47025 | 7404
Nna1 (Nna1 carboxypeptidase) | DRSC19404 | 94983 | 90330 | – | 1836 | 1240
Eaat1 (Excitatory amino acid transporter 1) | DRSC03321 | 64549 | 49155 | – | 1931 | 4132
CG31915 | DRSC03000 | 57483 | 50560 | – | 1239 | 4603
Twdlalpha (Tweedlealpha) | DRSC19914 | 63936 | 1.83e5 | – | 1868 | 8737
CG43091 | DRSC13571 | 43912 | 1.70e5 | – | 9312 | 4059
CG6893 | DRSC10742 | 1.01e5 | – | – | 4154 | 2983
osy (oskyddad) | DRSC14903 | 3.97e5 | 81604 | – | 24613 | 2864
osy (oskyddad) | DRSC15979 | 5.95e5 | 1.07e5 | – | 43301 | 2481
osy (oskyddad) | DRSC15981 | 63488 | 79213 | – | 1461 | 1896
CG18476 | DRSC15281 | 87850 | 81808 | – | 3225 | 3161
Pez | DRSC03397 | 1.33e5 | 50817 | – | 3445 | 5389
CG13492 | DRSC04137 | 67397 | 44288 | – | 2148 | 4273
Rbp (RIM-binding protein) | DRSC15724 | 34481 | 28517 | – | 1287 | 978
Rbp (RIM-binding protein) | DRSC15726 | 97552 | 1.07e5 | – | 3520 | 2900
Rab9Db + Rab9D + Rab9E | DRSC17656 | 5.71e5 | 2.04e5 | – | 32093 | 4834
GC1 | DRSC15322 | 1.03e5 | 1.04e5 | – | 4417 | 2077
qin | DRSC14782 | 6.26e5 | 1.01e5 | – | 27782 | 2627
qin | DRSC14785 | 7.35e5 | 1.15e5 | – | 34113 | 3416
Sox14 (Sox box protein 14) | DRSC04656 | 1.63e5 | 65987 | – | 4173 | 6051
